Among all 400,000 compounds or so, about 13,000 (3.2%) were called active. Inconclusive means that the source gave no clear call. Such entries were picked first, then a sample of the others. Calls follow the shape of the dose curve; as a rule, active = well fitted cell-killing curve with a large enough effect; inconclusive = small, poorly fitted or top-dose-only effect, or effect the other way; inactive = flat fitted curve, though single readings scatter. Where the call is inconclusive, the potency comes from a doubtful curve fit.
Assay: qHTS assay for MDR1-selective chemotherapeutics: Primary screen using the drug-selected MDR subline cells KB-V1; also: nearly all actives have a fitted effect of over 60% in size
Conditions: KB-V1 MDR cells viability, CellTiter-Glo, 72 h; activity change, negative = cytotoxicity: at 46.1 µM (top of the series)
Procedure, shortened: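 KB-V1 cells (P-gp-expressing MDR subline of KB-3-1) in phenol-red-free DMEM with 10% FBS were exposed to library compounds over a concentration series for 72 h at 37 degrees C. Viability read by CellTiter-Glo luminescence; concentration-effect curves fitted after normalization.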
% is scaled to controls: 0 for no effect and ±100 for the full control effect; potency is read from the fitted curve at half-maximal effect.

| Structure (SMILES) | Potency | activity change, negative = cytotoxicity |
| --- | --- | --- |
| COC(=O)c1cccc(-n2c(CCC(=O)O)ccc2-c2cccs2)c1 | inconclusive: 2.59 µM [rising, full curve] |  |
| COc1ccc(C(=O)Nc2ccc(-c3nnc4n3CCCCC4)cc2)cc1OC | inconclusive: 11.6 µM [rising, partial curve] |  |
| COc1ccc2[nH]c(=O)c(CN(Cc3cccs3)S(=O)(=O)c3cccc4nsnc34)cc2c1 | inconclusive: 16.4 µM [cytotoxic, partial curve, poor fit] |  |
| CCC(=O)N1CCN(c2ccccc2NC(=O)c2ccc(OC)c(Cl)c2)CC1 | inconclusive: 32.6 µM [cytotoxic, single point] |  |
| Cc1ccc(C(=O)Nc2ccc3c(c2)OCCO3)cc1 | inconclusive: 20.6 µM [cytotoxic, single point] |  |
| Cc1cc(C)c(C(O)c2ncc(-c3cccc4ccccc34)[nH]2)c(C)c1 (stereo not drawn) | inconclusive: 20.6 µM [cytotoxic, partial curve] |  |
| CCOc1cc(-c2nc3n(c(=O)c2C#N)CCS3)ccc1O |  | inactive: 7.24% |
| Cc1ccc(NC(=O)CSc2ccc(-c3ccccn3)nn2)cc1 | inconclusive: 8.2 µM [cytotoxic, partial curve] |  |
| O=C(Cc1ccccc1)NNC(=O)c1cnccn1 | inconclusive: 18.4 µM [cytotoxic, single point] |  |
| Cc1cc(SCC(=O)N(C)C2CCS(=O)(=O)C2)nc2c(C)cccc12 (stereo not drawn) | inconclusive: 0.291 µM [cytotoxic, full curve] |  |
| O=C(COC(=O)c1cc2ccccc2oc1=O)c1cccc([N+](=O)[O-])c1 | inconclusive: 25.9 µM [rising, single point] |  |
| CC(=O)/C(=N\Nc1ccccc1)Sc1cccc2cccnc12 |  | inactive: -1.2% |
| Cc1ncccc1C(=O)N1CCCC(C(=O)c2ccc3c4c(cccc24)CC3)C1 (stereo not drawn) | inconclusive: 8.2 µM [cytotoxic, partial curve] |  |
| COc1ccc(CCN2C(=O)CC(N3CCN(S(=O)(=O)c4ccccc4)CC3)C2=O)cc1OC (stereo not drawn) | inconclusive: 23.1 µM [cytotoxic, single point] |  |
| CCC(=O)N1CCc2cc(S(=O)(=O)NC(CC(C)C)C(=O)NCCc3ccccc3)ccc21 (stereo not drawn) |  | inactive: -21.3% |
| COc1ccc(-c2csc(NC(=S)NC(=O)c3ccc4ccccc4c3)n2)cc1OC |  | inconclusive: 6.41% |
| Cc1ccc(N(C(=O)c2csnn2)C(C(=O)NC2CCCCC2)c2cccnc2)cc1C (stereo not drawn) | inconclusive: 2.91 µM [cytotoxic, partial curve, poor fit] |  |
| CCC1(O)CC2CN(CCc3c([nH]c4ccccc34)C(C(=O)OC)(c3cc4c(cc3OC)N(C=O)C3C(O)(C(=O)OC)C(OC(C)=O)C5(CC)C=CCN6CCC43C65)C2)C1 (stereo not drawn) | active: 16.4 µM |  |
| COC(=O)C1=C(C)N(C)C(C)=C(C(=O)OC)C1c1ccccc1C |  | inactive: 0.458% |
| CCCCCNC(=O)Cc1ccc(S(=O)(=O)N2CCOCC2)s1 |  | inactive: 0% |
| COc1ccccc1CCC(=O)Nc1cc(S(=O)(=O)N2CCCCC2)ccc1N1CCN(C)CC1 | inconclusive: 16.4 µM [cytotoxic, single point] |  |
| CC(=O)Nc1ccccc1OCCCN1CCC(C(O)(c2ccccc2)c2ccccc2)CC1 | inconclusive: 16.4 µM [cytotoxic, partial curve, poor fit] |  |

| Structure (SMILES) | Potency | activity change, negative = cytotoxicity |
| --- | --- | --- |
| O=C(CN1CCCc2ccccc21)NCCc1ccc(Cl)cc1 | inconclusive: 18.4 µM [cytotoxic, single point] |  |
| COc1ccc(-c2cc(C(=O)NNC(=O)c3csc(N4CCOCC4)n3)c3ccccc3n2)cc1 | inconclusive: 20.6 µM [cytotoxic, single point] |  |
| NC(=S)N/N=C/c1ncc(C(F)(F)F)cc1Cl |  | inactive: -27.2% |
| c1cc(-c2n[nH]c(-c3ccncc3)n2)ccn1 | inconclusive: 29.1 µM [rising, single point] |  |
| CCOc1ccccc1N(C(=O)c1snc(C(N)=O)c1N)C(C(=O)NC1CCCC1)c1ccco1 (stereo not drawn) | active: 10.3 µM |  |
| CCCNS(=O)(=O)c1ccc(CCC(=O)N2CCN(c3ccc(F)cc3)CC2)cc1 | active: 9.2 µM |  |
| CC(NC(=O)CCCCCCN1C(=O)c2ccccc2C1=O)c1ccc2c(c1)CCCC2 (stereo not drawn) |  | inactive: -17.8% |
| CCOc1cc(NC(=S)NCc2ccco2)c(OCC)cc1NC(=O)CC | inconclusive: 9.2 µM [cytotoxic, partial curve, poor fit] |  |
| CCOC(=O)c1c(-c2ccccc2)oc2ccc(N(C(C)=O)S(=O)(=O)c3ccc(CC)cc3)cc12 | inconclusive: 29.1 µM [cytotoxic, single point] |  |
| CCN1C(=O)/C(=C\N(C)C)S/C1=N\S(=O)(=O)c1ccc(C)cc1 | inconclusive: 29.1 µM [cytotoxic, single point] |  |
| Cn1c(SCc2cc(=O)n3cc(Br)ccc3n2)nnc1C1COc2ccccc2O1 (stereo not drawn) | active: 11.6 µM |  |
| Cc1ccc2nc(COc3ccccc3NC(=O)C(C)(C)C)cc(=O)n2c1 |  | inactive: -1.64% |
| O=C(Nc1sc2c(c1C(=O)NCc1cccnc1)CCCC2)c1cc(=O)c2ccccc2o1 |  | inactive: 18.7% |
| COc1ccccc1NC(=O)Nc1ccc(Cc2ccncc2)cc1 | inconclusive: 23.1 µM [cytotoxic, single point] |  |
| COc1cc2c(cc1OC)C(C(=O)N1CCN(c3ccccn3)CC1)C(c1cccs1)N(C)C2=O (stereo not drawn) | inconclusive: 10.3 µM [cytotoxic, partial curve] |  |
| CCCn1c(=O)c(C(=O)Nc2ncccc2C)c(O)c2ccccc21 | inconclusive: 16.4 µM [cytotoxic, single point] |  |
| COc1cccc(CNC(=O)c2ccc(-c3nc(COc4ccccc4)c(C)o3)cc2)c1 |  | inactive: 0.889% |
| COC(=O)NC(=C(Cl)Cl)S(=O)(=O)c1ccccc1 | active: 18.4 µM |  |
| O=C(CN1CCN(C/C=C/c2ccccc2)CC1)NCc1ccc(Cl)cc1 | inconclusive: 16.4 µM [cytotoxic, partial curve, poor fit] |  |
| CS(=O)(=O)c1ccc(Cl)c(NC(=O)COC(=O)CNC(=O)c2ccc(Br)o2)c1 | inconclusive: 16.4 µM [rising, partial curve, poor fit] |  |
| COc1cccc(C2CC(c3cccc(Br)c3)n3ncnc3N2)c1 (stereo not drawn) | inconclusive: 29.1 µM [cytotoxic, single point] |  |

As entered above.
Under Potency, CCOc1cc(NC(=S)NCc2ccco2)c(OCC)cc1NC(=O)CC has the entry inconclusive: 9.2 µM [cytotoxic, partial curve, poor fit]
Under Potency, COc1ccc(-c2cc(C(=O)NNC(=O)c3csc(N4CCOCC4)n3)c3ccccc3n2)cc1 has the entry inconclusive: 20.6 µM [cytotoxic, single point]
Under Potency, COc1ccccc1NC(=O)Nc1ccc(Cc2ccncc2)cc1 has the entry inconclusive: 23.1 µM [cytotoxic, single point]
